# About 2,400 (1.1%) of roughly 220,000 compounds were called active. This list was built around the results that the source calls inconclusive (neither active nor inactive); the mix of calls is not that of the screen. Calls come from the whole dose curve; as a rule, active = well fitted inhibition curve with a large enough effect; inconclusive = small, poorly fitted or top-dose-only effect, or effect the other way; inactive = no such curve, though single readings can be large or run the other way. A potency beside an inconclusive call is a rough fit, not a confirmed value.
# Experiment: qHTS Multiplex Assay to Identify Dual Action Probes in a Cell Model of Huntington: Aggregate Formation (GFP); note: nearly all actives have a fitted effect of over 60% in size
# Conditions: PC12 HttQ103-GFP aggregates, Acumen cytometry, 40 h; activity change, negative = inhibition: at 46.1 µM (top of the series) unless noted
# In short: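 Using laser scanning cytometry, GFP-positive aggregates were counted after lysis of PC12 cells induced with 100 nM tebufenozide to express HTT exon 1 Q103–GFP. Compounds were tested in titration.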
# % is set by controls: 0 for no effect and ±100 for the full control effect; potency is the fitted concentration of half-maximal effect.
SMILES,Potency,"activity change, negative = inhibition"
CC(NC(=S)Nc1ccc(S(=O)(=O)N2CCOCC2)cc1)C1CC2CCC1C2 (configuration not stated),"inconclusive: 12.6 µM [inhibitor, single point]",–
Cc1ccc(-n2c(=S)[nH]c3sc4c(c3c2=O)CCc2ccccc2-4)cc1,"inconclusive: 10 µM [inhibitor, partial curve, poor fit]",–
O=[N+]([O-])c1ccccc1CN1CCN(Cc2c[nH]c3ccccc23)CC1,active: 8.91 µM,–
COc1cc(NC(=O)C2CCCCC2)c2ncccc2c1,"inconclusive: 0.501 µM [inhibitor, full curve, poor fit]",–
Cc1cc(/C=C(\C#N)C(=O)Nc2ccccc2)c(C)n1-c1cccnc1,inactive,–
O=C(N/N=C/c1ccc(N2CCOCC2)cc1)c1ccccc1OCCOc1ccccc1,"inconclusive: 35.5 µM [inhibitor, single point]",–
O=C1CC(Cc2ccccc2)C(=O)N1Cc1ccco1 (configuration not stated),inactive,–
O=C1CCC(C(=O)N(c2ccccc2)C2(C(=O)NC3CCCCC3)CCCCC2)N1 (configuration not stated),inactive,–
Cc1ccc(-n2ncc3c(NCc4ccco4)ncnc32)cc1C,active: 0.005 µM,–
CC(C)(C)C(=O)Nc1ccc(C(=O)N/N=C/c2ccccc2OC(=O)c2ccc(Cl)cc2Cl)cc1,"inconclusive: 1 µM [inhibitor, full curve]",–
O=C(Nc1nc(-c2ccccc2)cs1)c1ccc2c(=O)n3c(nc2c1)CCCCC3,"inconclusive: 35.5 µM [inhibitor, single point]",–
O=C(CN1C(=O)C2C3C=CC(C3)C2C1=O)N1CC=C(c2ccccc2)CC1 (configuration not stated),inactive,–
CS(=O)(=O)N(Cc1ccco1)CC(O)Cn1cc(C=O)c2ccccc21 (configuration not stated),–,inactive: 1.09% [at 9.22 µM]
Cc1ccc(-n2ncc3c(SCc4ccccn4)ncnc32)c(C)c1,"inconclusive: 11.2 µM [inhibitor, partial curve]",–
Cc1cc(C)nc(SCC(=O)N/N=C/c2cc(C)n(-c3ccccc3C)c2C)n1,"inconclusive: 35.5 µM [inhibitor, single point]",–
C/C(Cn1nnc([N+](=O)[O-])n1)=N\NC(=O)c1ccc(O)cc1O,"inconclusive: 11.2 µM [inhibitor, single point]",–
COc1ccc2[nH]c3c(N4CCN(Cc5ccc6c(c5)OCO6)CC4)ncnc3c2c1,active: 12.6 µM,–
CCCCn1c(=O)c(CCC(=O)OCC(=O)NCc2ccc(OC)c(OC)c2)nc2ccccc21,inactive,–
CC[n+]1ccc(/C=C/c2ccc(N(C)C)cc2)c2ccccc21,"inconclusive: 0.708 µM [inhibitor, full curve, poor fit]",–
COc1cccc(C(=O)CN2C(=O)C(C)(C)Oc3ccc(C(=O)N4CCCCCC4)cc32)c1,"inconclusive: 35.5 µM [inhibitor, single point]",–
Cc1noc(C)c1CSc1ncnc2sc3c(c12)CCCCC3,"inconclusive: 14.1 µM [inhibitor, single point]",–

SMILES,Potency,"activity change, negative = inhibition"
O=C(Nn1c(C2CCCCC2)nc2ccccc2c1=O)c1ccc(Cl)c([N+](=O)[O-])c1,"inconclusive: 15.8 µM [inhibitor, single point]",–
C=CCn1c(SCc2ccc(C(=O)Nc3nccs3)cc2)nnc1-c1ccc(C)c(Cl)c1,"inconclusive: 22.4 µM [inhibitor, single point]",–
Cc1ccc(NCCC(=O)c2cccc([N+](=O)[O-])c2)cc1,"inconclusive: 25.1 µM [inhibitor, single point]",–
O=C(c1cccs1)N1CCN(Cc2ccccc2)CC1,"inconclusive: 31.6 µM [inhibitor, single point]",–
O=C(/C=C/c1ccc([N+](=O)[O-])cc1)NCCOc1ccc(F)cc1,"inconclusive: 35.5 µM [inhibitor, single point]",–
Cc1cc(C(F)(F)F)c(C#N)c(SCC(=O)Nc2nc3ccccc3s2)n1,inactive,–
CCOc1ccc(NC(=O)c2ccc(CNc3c(N4CCCC4)c(=O)c3=O)cc2)cc1,–,inactive: -7.52% [at 9.22 µM]
Nn1c(=S)[nH]nc(Cc2ccc(O)cc2)c1=O,"inconclusive: 8.91 µM [inhibitor, partial curve, poor fit]",–
Cc1c(C(=O)Nc2ccncc2)sc2nc(-c3ccccc3)cn12,"inconclusive: 11.2 µM [inhibitor, partial curve]",–
O=C(Oc1c(-c2ccccc2)oc2ccccc2c1=O)c1ccccc1,"inconclusive: 35.5 µM [inhibitor, single point]",–
C#CC(C)(CC)NC(=O)c1cc(OC)c(OC)c(OC)c1 (configuration not stated),"inconclusive: 5.01 µM [activator, full curve]",–
CCN(CC(=O)Nc1c(F)cccc1F)C(=O)Cc1ccccc1,inactive,–
CC(NC(=O)Cn1nc(C(=O)O)c2ccccc2c1=O)c1ccccc1 (configuration not stated),inactive,–
CCOC(=O)c1cc([N+](=O)[O-])sc1NC(=O)c1ccc(S(=O)(=O)N2CC3(C)CC2CC(C)(C)C3)cc1 (configuration not stated),"inconclusive: 2.82 µM [inhibitor, partial curve]",–
COc1ccc([N+](=O)[O-])cc1NC(=O)COC(=O)Cc1cc(OC)c(OC)c(OC)c1,"inconclusive: 5.62 µM [activator, single point]",–
CCOc1ccc(-n2c(SCC(=O)Nc3cc(OC)c([N+](=O)[O-])cc3C)nc3ccccc32)cc1,"inconclusive: 1.26 µM [activator, single point]",–
S=C(Nc1ccc(Cl)cc1)NC1CCCCC1,–,inactive: 10.1% [at 9.22 µM]
CC(=O)C(Sc1ccc2nnc(-c3ccc(C)cc3)n2n1)C(C)=O,"inconclusive: 22.4 µM [inhibitor, partial curve]",–
C=CC[C@@H]1C=C[C@H](O/N=C/c2ccc(C(=O)N3[C@H](c4ccc(C)cc4)[C@@H](C)CC[C@H]3C(=O)OC)cc2)[C@@H](CO)O1,"inconclusive: 35.5 µM [inhibitor, single point]",–
Cc1cc(C)n(-c2nc(NCCCO)c3c4c(sc3n2)CCCC4)n1,"inconclusive: 35.5 µM [inhibitor, single point]",–
OCCNc1nc(N2CCN(Cc3ccccc3)CC2)nc2ccccc12,inactive,–

# One compound at a time (already shown):
# CCN(CC(=O)Nc1c(F)cccc1F)C(=O)Cc1ccccc1 is entered as Potency: inactive
# C=CCn1c(SCc2ccc(C(=O)Nc3nccs3)cc2)nnc1-c1ccc(C)c(Cl)c1 is entered as Potency: inconclusive: 22.4 µM [inhibitor, single point]
